This note sets out measurements from US12729225B2, “Non-canonical SWI/SNF complex and uses thereof” (Dana-Farber Cancer Institute, Inc., priority 2018, dated 2026).

This data set has as its system mSWI/SNF complexes. Description: mSWI/SNF complex purification with HA-tagged baits and mass spectrometry (peptide counts). Further details: species or system human.
Setting [1] is: 293_HA-BRD7 bait purification, mass spectrometry, total peptides per co-purified protein.
[2] abbreviates: 293_HA-BRD7 bait purification, mass spectrometry, unique peptides per co-purified protein.

B1: DEK (protein, UniProt P35659 2-375, looked up)
Protein DEK: SASAPAAEGEGTPTQPASEKEPEMPGPREESEEEEDEDDEEEEEEEKEKSLIVEGKREKKKVERLTMQVSSLQREPFTIAQGKGQKLCEIERIHFFLSKKKTDELRNLHKLLYNRPGTVSSLKKNVGQFSGFPFEKGSVQYKKKEEMLKKFRNAMLKSICEVLDLERSGVNSELVKRILNFLMHPKPSGKPLPKSKKTCSKGSKKERNSSGMARKAKRTKCPEILSDESSSDEDEKKNKEESSDDEDKESEEEPPKKTAKREKPKQKATSKSKKSVKSANVKKADSSTTKKNQNSSKKESESEDSSDDEPLIKKLKKPPTDEELKETIKKLLASANLEEVTMKQICKKVYENYPTYDLTERKDFIKTTVKELIS
With B1, under setting [1], the Total is given as 3. In addition, under setting [2], the Unique was found to be 3.

B2: TMCO1 (protein, UniProt Q9UM00 1-239, looked up)
Calcium load-activated …: MPRKRKCDLRAVRVGLLLGGGGVYGSRFRFTFPGCRALSPWRVRVQRRRCEMSTMFADTLLIVFISVCTALLAEGITWVLVYRTDKYKRLKAEVEKQSKKLEKKKETITESAGRQQKKKIERQEEKLKNNNRDLSMVRMKSMFAIGFCFTALMGMFNSIFDGRVVAKLPFTPLSYIQGLSHRNLLGDDTTDCSFIFLYILCTMSIRQNIQKILGLAPSRAATKQAGGFLGPPPPSGKFS
For B2, under setting [1], the Total is reported as 3. In addition, the Unique under setting [2] was determined as 3.

B3: SRSF7 (protein, UniProt Q16629 1-238, looked up)
Serine/arginine-rich splicing …: MSRYGRYGGETKVYVGNLGTGAGKGELERAFSYYGPLRTVWIARNPPGFAFVEFEDPRDAEDAVRGLDGKVICGSRVRVELSTGMPRRSRFDRPPARRPFDPNDRCYECGEKGHYAYDCHRYSRRRRSRSRSRSHSRSRGRRYSRSRSRSRGRRSRSASPRRSRSISLRRSRSASLRRSRSGSIKGSRYFQSPSRSRSRSRSISRPRSSRSKSRSPSPKRSRSPSGSPRRSASPERMD
Turning to B3, the Total under setting [1] worked out at 3. The same molecule showed a Unique under setting [2] of 3.

B4: ACOT9 (protein, UniProt Q9Y305 22-439, looked up)
Acyl-coenzyme A thioesterase …: LTQGPQNPKKQGIFHIHEVRDKLREIVGASTNWRDHVKAMEERKLLHSFLAKSQDGLPPRRMKDSYIEVLLPLGSEPELREKYLTVQNTVRFGRILEDLDSLGVLICYMHNKIHSAKMSPLSIVTALVDKIDMCKKSLSPEQDIKFSGHVSWVGKTSMEVKMQMFQLHGDEFCPVLDATFVMVARDSENKGPAFVNPLIPESPEEEELFRQGELNKGRRIAFSSTSLLKMAPSAEERTTIHEMFLSTLDPKTISFRSRVLPSNAVWMENSKLKSLEICHPQERNIFNRIFGGFLMRKAYELAWATACSFGGSRPFVVAVDDIMFQKPVEVGSLLFLSSQVCFTQNNYIQVRVHSEVASLQEKQHTTTNVFHFTFMSEKEVPLVFPKTYGESMLYLDGQRHFNSMSGPATLRKDYLVEP
The molecule B4 showed a Total under setting [1] of 3. In addition, the Unique under setting [2] is 3.

B5: HNRNPA0 (protein, UniProt Q13151 1-305, looked up)
Heterogeneous nuclear …: MENSQLCKLFIGGLNVQTSESGLRGHFEAFGTLTDCVVVVNPQTKRSRCFGFVTYSNVEEADAAMAASPHAVDGNTVELKRAVSREDSARPGAHAKVKKLFVGGLKGDVAEGDLIEHFSQFGTVEKAEIIADKQSGKKRGFGFVYFQNHDAADKAAVVKFHPIQGHRVEVKKAVPKEDIYSGGGGGGSRSSRGGRGGRGRGGGRDQNGLSKGGGGGYNSYGGYGGGGGGGYNAYGGGGGGSSYGGSDYGNGFGGFGSYSQHQSSYGPMKSGGGGGGGGSSWGGRSNSGPYRGGYGGGGGYGGSSF
The molecule B5 gave a Total under setting [1] of 3. Moreover, the Unique under setting [2] was found to be 2.

B6: SMARCD3 (protein)
chain: AADEVAGGARKATKSKLFEFLVHGVRPGMPSGARMPHQGAPMGPPGSPYMGSPAVRPGLAPAGMEPARKRAAPPPGQSQAQSQGQPVPTAPARSRSAKRRKMADKILPQRIRELVPESQAYMDLLAFERKLDQTIMRKRVDIQEALKRPMKQKRKLRLYISNTFNPAKPDAEDSDGSIASWELRVEGKLLDDPSKQKRKFSSFFKSLVIELDKDLYGPDNHLVEWHRTPTTQETDGFQVKRPGDLSVRCTLLLMLDYQPPQFKLDPRLARLLGLHTQSRSAIVQALWQYVKTNRLQDSHDKEYINGDKYFQQIFDCPRLKFSEIPQRLTALLLPPDPIVINHVISVDPSDQKKTACYDIDVEVEEPLKGQMSSFLLSTANQQEISALDSKIHETIESINQLKIQRDFMLSFSRDPKGYVQDLLRSQSRDLKVMTDVAGNPEEERRAEFYHQPWSQEAVSRYFYCKIQQRRQELEQSLVVRNT
On to B6, for which the Total runs as follows: (293_HA-BRD7: HA-BRD7 bait purification, total peptide count per co-purified protein) 23; (293_HA-DPF2 purification, total peptides) 23. Moreover, the Unique is 20 (293_HA-BRD7: HA-BRD7 bait purification, unique peptide count per co-purified protein) and 20 (293_HA-DPF2 purification, unique peptides).

B7: PRDX4 (protein, UniProt Q13162 38-271, looked up)
Peroxiredoxin-4: WETEERPRTREEECHFYAGGQVYPGEASRVSVADHSLHLSKAKISKPAPYWEGTAVIDGEFKELKLTDYRGKYLVFFFYPLDFTFVCPTEIIAFGDRLEEFRSINTEVVACSVDSQFTHLAWINTPRRQGGLGPIRIPLLSDLTHQISKDYGVYLEDSGHTLRGLFIIDDKGILRQITLNDLPVGRSVDETLRLVQAFQYTDKHGEVCPAGWKPGSETIIPDPAGKLKYFDKLN
As to B7, the Total under setting [1] was determined as 3. This molecule returned a Unique under setting [2] of 3.

B8: P4HA2 (protein, UniProt O15460 22-535, looked up)
Prolyl 4-hydroxylase subunit …: EFFTSIGHMTDLIYAEKELVQSLKEYILVEEAKLSKIKSWANKMEALTSKSAADAEGYLAHPVNAYKLVKRLNTDWPALEDLVLQDSAAGFIANLSVQRQFFPTDEDEIGAAKALMRLQDTYRLDPGTISRGELPGTKYQAMLSVDDCFGMGRSAYNEGDYYHTVLWMEQVLKQLDAGEEATTTKSQVLDYLSYAVFQLGDLHRALELTRRLLSLDPSHERAGGNLRYFEQLLEEEREKTLTNQTEAELATPEGIYERPVDYLPERDVYESLCRGEGVKLTPRRQKRLFCRYHHGNRAPQLLIAPFKEEDEWDSPHIVRYYDVMSDEEIERIKEIAKPKLARATVRDPKTGVLTVASYRVSKSSWLEEDDDPVVARVNRRMQHITGLTVKTAELLQVANYGVGGQYEPHFDFSRNDERDTFKHLGTGNRVATFLNYMSDVEAGGATVFPDLGAAIWPKKGTAVFWYNLLRSGEGDYRTRHAACPVLVGCKWVSNKWFHERGQEFLRPCGSTEVD
Under setting [1], B8 displayed a Total of 3. For the same molecule, the Unique under setting [2] stood at 3.

B9: ATP5L (protein, UniProt O75964 2-103, looked up)
ATP synthase F(0) complex …: AQFVRNLVEKTPALVNAAVTYSKPRLATFWYYAKVELVPPTPAEIPRAIQSLKKIVNSAQTGSFKQLTVKEAVLNGLVATEVLMWFYVGEIIGKRGIIGYDV
B9: under setting [1], the Total came out at 3. The Unique under setting [2] is listed as 3.

B10: C11orf57 (protein, UniProt Q6ZUT1 1-292, looked up)
Uncharacterized protein NKAPD1: MSRIPLGKVLLRNVIRHTDAHNKIQEESDMWKIRELEKQMEDAYRGTKRKMLPSSSSRMRSDGFDEESQRYYWRPKNEISGTLEDDFLKAKSWNKKFYDYEANMPDRWGHSGYKELYPEEFETDSDQQDITNGKKTSPQVKSSTHESRKHKKSKKSHKKKQKKRSHKKQKKSKKEATDITADSSSEFSEETGASGTRKGKQPHKRKKKSRKKSLKKPALFLEAESNTSHSDDSASSSSEESEERDTKKTKRKKREKKAHTSVANNEIQERTNKRTNWKVATDERSAESSEDD
As to B10, the Total under setting [1] came to 3. The Unique under setting [2] is recorded as 3.

B11: ATP5F1 (protein, UniProt P24539 43-256, looked up)
ATP synthase peripheral stalk …: PVPPLPEYGGKVRYGLIPEEFFQFLYPKTGVTGPYVLGTGLILYALSKEIYVISAETFTALSVLGVMVYGIKKYGPFVADFADKLNEQKLAQLEEAKQASIQHIQNAIDTEKSQQALVQKRHYLFDVQRNNIAMALEVTYRERLYRVYKEVKNRLDYHISVQNMMRRKEQEHMINWVEKHVVQSISTQQEKETIAKCIADLKLLAKKAQAQPVM
B11: under setting [1], the Total amounted to 3. The molecule further registered a Unique under setting [2] of 3.

B12: IRS4 (protein, UniProt O14654 1-1257, looked up)
Insulin receptor substrate 4: MASCSFTRDQATRRLRGAAAAAAAALAAVVTTPLLSSGTPTALIGTGSSCPGAMWLSTATGSRSDSESEEEDLPVGEEVCKRGYLRKQKHGHRRYFVLKLETADAPARLEYYENARKFRHSVRAAAAAAAAAASGAAIPPLIPPRRVITLYQCFSVSQRADARYRHLIALFTQDEYFAMVAENESEQESWYLLLSRLILESKRRRCGTLGAQPDGEPAALAAAAAAEPPFYKDVWQVIVKPRGLGHRKELSGVFRLCLTDEEVVFVRLNTEVASVVVQLLSIRRCGHSEQYFFLEVGRSTVIGPGELWMQVDDCVVAQNMHELFLEKMRALCADEYRARCRSYSISIGAHLLTLLSARRHLGLVPLEPGGWLRRSRFEQFCHLRAIGDGEDEMLFTRRFVTPSEPVAHSRRGRLHLPRGRRSRRAVSVPASFFRRLAPSPARPRHPAEAPNNGARLSSEVSGSGSGNFGEEGNPQGKEDQEGSGGDYMPMNNWGSGNGRGSGGGQGSNGQGSSSHSSGGNQCSGEGQGSRGGQGSNGQGSGGNQCSRDGQGTAGGHGSGGGQRPGGGHGSGGGQGPGDGHGSGGGKNSGGGKGSGSGKGSDGDGERGKSLKKRSYFGKLTQSKQQQMPPPPPPPPPPPPAGGTGGKGKSGGRFRLYFCVDRGATKECKEAKEVKDAEIPEGAARGPHRARAFDEDEDDPYVPMRPGVATPLVSSSDYMPMAPQNVSASKKRHSRSPFEDSRGYMMMFPRVSPPPAPSPPKAPDTNKEDDSKDNDSESDYMFMAPGAGAIPKNPRNPQGGSSSKSWSSYFSLPNPFRSSPLGQNDNSEYVPMLPGKFLGRGLDKEVSYNWDPKDAASKPSGEGSFSKPGDGGSPSKPSDHEPPKNKAKRPNRLSFITKGYKIKPKPQKPTHEQREADSSSDYVNMDFTKRESNTPAPSTQGLPDSWGIIAEPRQSAFSNYVNVEFGVPFPNPANDLSDLLRAIPRANPLSLDSARWPLPPLPLSATGSNAIEEEGDYIEVIFNSAMTPAMALADSAIRYDAETGRIYVVDPFSECCMDISLSPSRCSEPPPVARLLQEEEQERRRPQSRSQSFFAAARAAVSAFPTDSLERDLSPSSAPAVASAAEPTLALSQVVAAASALAAAPGIGAAAAAAGFDSASARWFQPVANAADAEAVRGAQDVAGGSNPGAHNPSANLARGDNQAGGAAAAAAAPEPPPRSRRVPRPPEREDSDNDDDTHVRMDFARRDNQFDSPKRGR
Molecule B12 gave a Total under setting [1] of 3. In addition, the Unique under setting [2] is reported as 3.
